From PubChem BioAssay AID493014 (National Center for Advancing Translational Sciences (NCATS), 2011)
Some of the results follow. Shown are side measurements of this screen, not its main read-out; they come without a call. The list favours compounds with an active or inconclusive main result. Potencies come from curve fits of mixed quality, noted in brackets.

Experiment: qHTS Assay to Find Inhibitors of Chronic Active B-Cell Receptor Signaling
Conditions: ABC-DLBCL IkBa-CBG/CBR reporter, luminescence ratio (green luciferase fused to IkBa over red control in TMD8 lymphoma cells), 4 h
How it was run: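 TMD8 ABC-DLBCL cells carrying doxycycline-inducible green luciferase fused to IkappaBalpha plus unfused red luciferase were exposed to compounds (up to 46 uM) for 4 hrs at 37C. Activity came from the overlap-corrected green/red luminescence ratio.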

[1] = measured here: CBR red luminescence, cell number

Structure (SMILES) | AC50 (measured here: IkBa-CBG green luminescence) | AC50 [1]
CCOC(=O)C1=C(C2=CCCCC2)c2ccc(OC)cc2N(S(=O)(=O)C(F)(F)F)C1C(=O)OCC (stereo unspecified) | 23.1 µM [falling, partial curve, poor fit] | 
Cc1ccc(S(=O)(=O)CC#CCOC(=O)c2ccc([N+](=O)[O-])cc2)cc1 |  | 35.5 µM [falling, partial curve, poor fit]
Cc1cc(C)c(C#N)c(N2CCN(C(=O)C3COc4ccccc4O3)CC2)n1 (stereo unspecified) |  | 0.206 µM [rising, full curve, poor fit]
Cn1cccc1C(=O)C(=O)Nc1ccccc1C(F)(F)F |  | 5.01 µM [rising, full curve, poor fit]
CCn1c(SCC(=O)NCc2ccco2)nc2ccccc2c1=O |  | 17.8 µM [falling, partial curve, poor fit]
Nc1ccccc1SCc1ccccc1Cl |  | 7.94 µM [rising, partial curve, poor fit]
O=C(COc1cccc(Cl)c1)NCC(c1cccs1)N1CCOCC1 (stereo unspecified) |  | 29.1 µM [falling, single point]
O=C(Nc1cccc(F)c1)c1c(O)c2cccc3c2n(c1=O)CCC3 |  | 0.447 µM [rising, full curve, poor fit]
Cc1cc(=O)oc(C)c1C(=O)Nc1cccc2nonc12 |  | 3.16 µM [rising, full curve, poor fit]
COC(=O)c1ccsc1NC(=O)CN1CCN(c2ccc(F)cc2)CC1 |  | 5.8 µM [falling, partial curve, poor fit]
COc1ccc(CCC(=O)Nc2sc(C(=O)N(C)C)c(C)c2C#N)cc1 |  | 6.31 µM [rising, single point]
O=c1cc(NCCc2ccccc2)c2ccccc2o1 |  | 11.2 µM [falling, single point]
COc1cc2ccccc2cc1C(=O)NC(=S)Nc1ccc(C(=O)O)cc1 |  | 0.355 µM [falling, full curve, poor fit]
Cn1c(=O)c2c(nc(Cc3ccc(N)cc3)n2C)n(C)c1=O |  | 5.62 µM [falling, partial curve, poor fit]
COc1ccc(S(=O)(=O)N2CCCN(S(=O)(=O)c3ccc(OC)c(C)c3)CC2)cc1C |  | 1.64 µM [rising, partial curve]
CCCc1cc(-c2nc(N)ncc2-c2ccc3c(c2)OCCCO3)c(O)cc1OC |  | 29.1 µM [falling, single point]
Nc1ncnc2c1ncn2[C@@H]1O[C@H](CNC(=O)[C@@H](N)CO)[C@@H](O)[C@H]1O |  | 29.1 µM [rising, single point]
CC(C)C(NS(=O)(=O)c1cccc(C(F)(F)F)c1)C(=O)N1CCc2ccccc2C1 (stereo unspecified) |  | 11.2 µM [falling, single point]
CC(=O)c1ccc(NC(=S)NCc2cccnc2)cc1 |  | 2.24 µM [rising, partial curve, poor fit]
CCc1cc2c(CN(C)Cc3ccccc3F)cc(=O)oc2cc1O |  | 12.6 µM [rising, single point]
O=C(CSc1nc(-c2ccccc2)cs1)N1CCN(C(=O)c2ccco2)CC1 |  | 6.51 µM [rising, single point]

Structure (SMILES) | AC50 (measured here: IkBa-CBG green luminescence) | AC50 [1]
C[C@H](CO)N1C[C@H](C)[C@@H](CN(C)S(=O)(=O)c2cn(C)cn2)Oc2c(NS(=O)(=O)c3cccs3)cccc2C1=O |  | 23.1 µM [rising, single point]
O=C(c1cccn2c(=O)c3cc(Cl)ccc3nc12)N1CCOCC1 |  | 29.1 µM [rising, single point]
Cc1ccc(NC(=O)c2ccc3c(c2)OCO3)cc1Cl |  | 35.5 µM [falling, partial curve, poor fit]
COc1cccc(NC(=O)C(=O)N2CCOCC2)c1 |  | 9.2 µM [falling, partial curve]
O=C(Nc1cccc(NC(=O)c2ccco2)c1)c1cccc(Br)c1 |  | 20 µM [falling, partial curve, poor fit]
COc1cc(NC(=O)c2ccc([N+](=O)[O-])cc2)ccc1NC(=O)C(C)C |  | 3.55 µM [rising, partial curve, poor fit]
O=C(CCC(=O)Nc1ccc(Br)cc1)N/N=C/c1ccccc1O |  | 5.01 µM [rising, partial curve, poor fit]
CCOc1ccc(NC(=O)C2CCCN(C(=O)NCc3ccccc3)C2)cc1 (stereo unspecified) |  | 25.9 µM [falling, single point]
C=CCN1C(=O)NC(c2ccccc2)(C(F)(F)F)S/C1=C(\C#N)c1nnc(N2CCOCC2)n1-c1ccccc1 (stereo unspecified) |  | 16.4 µM [falling, partial curve]
O=C(CSc1ccccn1)N1CCc2ccccc21 |  | 20 µM [falling, single point]
CN1CCN(C(=O)CCNC(=O)Cn2ccc3ccccc3c2=O)CC1 |  | 29.1 µM [falling, single point]
Cc1sc2nc(CN3CCOCC3)nc(N3CCOCC3)c2c1C |  | 6.51 µM [falling, single point]
Cc1ccsc1C(=O)OCC(=O)Nc1cccc(S(=O)(=O)NC2=NCCCCC2)c1 |  | 20 µM [falling, single point]
CC(C)CCNC(=O)c1onc(CSc2ccc(Cl)cc2)c1C(=O)NCCC(C)C |  | 5.62 µM [falling, single point]
O=C(Cc1cccs1)N/N=C/C(Br)=C/c1ccccc1 |  | 10 µM [rising, partial curve]
O=C(c1cccc(C(F)(F)F)c1)C1CCCN(Cc2cccn2-c2ccccn2)C1 (stereo unspecified) |  | 14.1 µM [falling, single point]
Cc1cc(C)c(C(=O)C2OC(=O)C(C)(C)C(=O)C2(C)C)c(C)c1 (stereo unspecified) |  | 5.17 µM [rising, partial curve, poor fit]
COc1ccc(/C=N/NC(=O)c2ccoc2C)cc1O |  | 20.6 µM [falling, partial curve, poor fit]
CC(C)(C)OC(=O)NN1CC(=O)N2Cc3ccccc3C[C@@H]2C1=O |  | 3.98 µM [rising, partial curve, poor fit]
O=C(Nc1ccc(-c2csc(Nc3ccc(Cl)cc3)n2)cc1)c1cc([N+](=O)[O-])cc(C(F)(F)F)c1 |  | 14.1 µM [rising, partial curve, poor fit]

Filtered by structure, those above with a cyano group
Structure (SMILES) | AC50 (measured here: IkBa-CBG green luminescence) | AC50 [1]
Cc1cc(C)c(C#N)c(N2CCN(C(=O)C3COc4ccccc4O3)CC2)n1 (stereo unspecified) |  | 0.206 µM [rising, full curve, poor fit]
COc1ccc(CCC(=O)Nc2sc(C(=O)N(C)C)c(C)c2C#N)cc1 |  | 6.31 µM [rising, single point]
C=CCN1C(=O)NC(c2ccccc2)(C(F)(F)F)S/C1=C(\C#N)c1nnc(N2CCOCC2)n1-c1ccccc1 (stereo unspecified) |  | 16.4 µM [falling, partial curve]
